Measurements: the supplement of paper PMC4604168 (melanoma cell lines)
This is one part of the list. Many values rest on one well or one pass, so single values are uncertain.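 Imaging used 1,536-well plates; nuclei positive for cleaved PARP by antibody were divided by total DNA-stained nuclei to yield the apoptosis fraction. Doses for screening kept most cells viable, and cell lines differ markedly in resting and induced cleaved-PARP levels.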

Tested on: SkMel28
Assay: cleaved PARP positive nuclei fraction relative to DMSO control; melanoma cells; higher = more apoptosis
Conditions: library dose: low library concentration; 72 h

| Structure (SMILES) | cleaved PARP positive nuclei fraction |
| --- | --- |
| O=C(Nc1cccc(Cl)c1)Nc1ncc(CCNc2ncnc3ccsc23)s1 + COc1ccc(COc2ccc(Cc3cnc(N)nc3N)cc2OC)cc1 [GW2580] (first compound 0.0008 µM, partner dose 1 µM) | 70.2% |
| Cc1nc(Nc2ncc(C(=O)Nc3c(C)cccc3Cl)s2)cc(N2CCN(CCO)CC2)n1 [dasatanib] + O=C1NC(=O)/C(=C/c2ccc(-c3ccc(F)cc3O)o2)S1 [AS252424] (first compound 0.004 µM, partner dose 1 µM) | 259% |
| C[C@]1(c2nc3c(C(N)=O)cccc3[nH]2)CCCN1 [Veliparib] + Cc1cc([N+](=O)[O-])ccc1NS(=O)(=O)c1cc(Cl)ccc1Cl [FH535] (first compound 1.4 µM, partner dose 1 µM) | 109% |
| C[C@@H]1CCN(C(=O)CC#N)C[C@@H]1N(C)c1ncnc2[nH]ccc12 + COc1cc2ncnc(Nc3ccc(Oc4ccccc4)cc3)c2cc1OC [SrcI1] (first compound 1 µM, partner dose 2 µM) | 192% |
| CC1(C)NC(=O)N(c2ccc([N+](=O)[O-])c(C(F)(F)F)c2)C1=O [nilutamide] + c1cc(-c2cnn3cc(-c4ccc(OCCN5CCCCC5)cc4)cnc23)ccn1 [Dorsomorphin] (first compound 1 µM, partner dose 0.4 µM) | 88.8% |
| C[C@@H]1CCN(C(=O)CC#N)C[C@@H]1N(C)c1ncnc2[nH]ccc12 + c1cc(-c2cnn3cc(-c4ccc(OCCN5CCCCC5)cc4)cnc23)ccn1 [Dorsomorphin] (first compound 1 µM, partner dose 0.4 µM) | 94.4% |
